Data as given in the supplement of paper PMC10849652.
The other results are listed elsewhere or left out.

Protein sequences, listed by entry. Tags and fused reporters are not part of them. Lines headed by an entry give the natural chain unless they say otherwise; changes in a name come on top.
UniProt Q8NI36: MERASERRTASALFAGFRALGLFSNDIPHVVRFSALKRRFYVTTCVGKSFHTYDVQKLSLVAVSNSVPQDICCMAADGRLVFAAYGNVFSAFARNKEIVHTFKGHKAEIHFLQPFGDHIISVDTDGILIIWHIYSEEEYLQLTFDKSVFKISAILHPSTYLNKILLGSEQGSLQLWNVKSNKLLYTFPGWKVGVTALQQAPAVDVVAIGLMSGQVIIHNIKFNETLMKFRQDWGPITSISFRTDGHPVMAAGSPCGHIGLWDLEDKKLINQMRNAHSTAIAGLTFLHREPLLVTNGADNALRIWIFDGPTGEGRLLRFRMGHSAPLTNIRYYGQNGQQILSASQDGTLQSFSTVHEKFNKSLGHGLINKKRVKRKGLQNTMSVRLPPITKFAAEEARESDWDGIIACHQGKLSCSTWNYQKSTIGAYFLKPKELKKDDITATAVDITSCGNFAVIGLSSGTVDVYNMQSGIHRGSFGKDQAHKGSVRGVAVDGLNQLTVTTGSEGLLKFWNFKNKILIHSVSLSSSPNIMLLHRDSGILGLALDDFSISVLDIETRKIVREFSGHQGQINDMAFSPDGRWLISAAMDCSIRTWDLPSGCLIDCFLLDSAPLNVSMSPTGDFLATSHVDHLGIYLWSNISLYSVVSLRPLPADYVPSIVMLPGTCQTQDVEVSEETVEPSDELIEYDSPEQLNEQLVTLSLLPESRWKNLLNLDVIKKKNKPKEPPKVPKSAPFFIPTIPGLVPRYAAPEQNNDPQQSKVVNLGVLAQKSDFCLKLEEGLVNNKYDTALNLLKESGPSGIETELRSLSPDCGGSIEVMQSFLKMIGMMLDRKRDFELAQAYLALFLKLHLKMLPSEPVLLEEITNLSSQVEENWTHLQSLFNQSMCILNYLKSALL
UniProt Q5JSH3: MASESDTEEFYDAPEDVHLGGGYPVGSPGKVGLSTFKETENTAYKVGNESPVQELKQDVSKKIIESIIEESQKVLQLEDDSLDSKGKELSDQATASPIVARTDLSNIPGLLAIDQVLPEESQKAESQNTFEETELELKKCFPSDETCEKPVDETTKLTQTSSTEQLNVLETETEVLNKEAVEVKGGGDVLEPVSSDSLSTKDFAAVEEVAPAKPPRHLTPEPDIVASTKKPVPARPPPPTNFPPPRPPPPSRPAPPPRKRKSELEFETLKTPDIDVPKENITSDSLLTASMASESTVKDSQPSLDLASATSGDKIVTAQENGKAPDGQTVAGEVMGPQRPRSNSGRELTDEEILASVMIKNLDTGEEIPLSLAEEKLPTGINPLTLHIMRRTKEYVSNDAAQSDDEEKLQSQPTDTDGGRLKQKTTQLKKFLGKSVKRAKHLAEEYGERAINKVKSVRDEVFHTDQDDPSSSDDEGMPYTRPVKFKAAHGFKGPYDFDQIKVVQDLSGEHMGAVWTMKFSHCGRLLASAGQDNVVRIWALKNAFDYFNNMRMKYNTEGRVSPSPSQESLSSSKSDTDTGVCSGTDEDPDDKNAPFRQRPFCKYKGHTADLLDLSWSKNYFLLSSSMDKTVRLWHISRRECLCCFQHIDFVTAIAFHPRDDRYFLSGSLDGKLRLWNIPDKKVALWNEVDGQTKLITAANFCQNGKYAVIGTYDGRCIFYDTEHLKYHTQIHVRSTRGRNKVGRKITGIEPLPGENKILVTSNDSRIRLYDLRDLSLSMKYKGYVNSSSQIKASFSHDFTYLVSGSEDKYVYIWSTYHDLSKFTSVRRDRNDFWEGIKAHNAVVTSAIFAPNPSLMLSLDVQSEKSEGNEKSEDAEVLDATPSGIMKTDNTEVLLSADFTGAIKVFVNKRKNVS
UniProt O00401, whole entry, looked up: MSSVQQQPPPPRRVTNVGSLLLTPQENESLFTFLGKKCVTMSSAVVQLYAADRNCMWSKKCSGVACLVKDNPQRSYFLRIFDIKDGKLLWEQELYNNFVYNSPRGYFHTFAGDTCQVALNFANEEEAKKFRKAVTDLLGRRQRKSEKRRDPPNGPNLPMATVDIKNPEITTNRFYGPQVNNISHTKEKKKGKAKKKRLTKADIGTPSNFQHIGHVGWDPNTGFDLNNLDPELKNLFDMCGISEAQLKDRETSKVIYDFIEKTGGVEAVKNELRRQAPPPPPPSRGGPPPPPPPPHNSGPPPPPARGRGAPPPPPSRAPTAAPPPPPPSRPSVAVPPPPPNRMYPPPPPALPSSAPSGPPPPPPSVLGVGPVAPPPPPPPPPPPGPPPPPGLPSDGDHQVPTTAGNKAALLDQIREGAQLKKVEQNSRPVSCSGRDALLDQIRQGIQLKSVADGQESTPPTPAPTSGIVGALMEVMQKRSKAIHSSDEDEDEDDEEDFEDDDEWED
UniProt P23381: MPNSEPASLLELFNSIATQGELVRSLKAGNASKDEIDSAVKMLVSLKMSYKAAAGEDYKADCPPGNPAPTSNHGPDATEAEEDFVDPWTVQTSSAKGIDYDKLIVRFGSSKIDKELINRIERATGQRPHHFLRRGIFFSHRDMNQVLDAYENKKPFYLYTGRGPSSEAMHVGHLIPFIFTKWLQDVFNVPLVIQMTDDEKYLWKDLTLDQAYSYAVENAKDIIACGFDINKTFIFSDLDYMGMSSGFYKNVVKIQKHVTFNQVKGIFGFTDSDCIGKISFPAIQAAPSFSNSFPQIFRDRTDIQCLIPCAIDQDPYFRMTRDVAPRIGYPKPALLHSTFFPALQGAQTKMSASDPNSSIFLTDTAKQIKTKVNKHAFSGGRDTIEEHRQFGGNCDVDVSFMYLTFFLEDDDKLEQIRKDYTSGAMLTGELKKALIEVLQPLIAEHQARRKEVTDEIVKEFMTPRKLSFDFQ
UniProt Q8IWB7: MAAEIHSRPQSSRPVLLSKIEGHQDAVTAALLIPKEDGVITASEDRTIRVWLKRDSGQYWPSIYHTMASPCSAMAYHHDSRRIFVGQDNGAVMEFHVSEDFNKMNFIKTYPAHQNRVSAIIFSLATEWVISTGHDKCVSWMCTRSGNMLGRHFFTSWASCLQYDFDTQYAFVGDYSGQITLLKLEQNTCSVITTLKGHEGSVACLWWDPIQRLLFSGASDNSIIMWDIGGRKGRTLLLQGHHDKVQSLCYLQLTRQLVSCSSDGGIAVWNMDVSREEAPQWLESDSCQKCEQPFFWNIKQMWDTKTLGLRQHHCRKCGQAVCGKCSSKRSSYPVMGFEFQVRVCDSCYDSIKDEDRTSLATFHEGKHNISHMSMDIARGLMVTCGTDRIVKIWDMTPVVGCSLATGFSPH
UniProt Q9BQA1, whole entry, looked up: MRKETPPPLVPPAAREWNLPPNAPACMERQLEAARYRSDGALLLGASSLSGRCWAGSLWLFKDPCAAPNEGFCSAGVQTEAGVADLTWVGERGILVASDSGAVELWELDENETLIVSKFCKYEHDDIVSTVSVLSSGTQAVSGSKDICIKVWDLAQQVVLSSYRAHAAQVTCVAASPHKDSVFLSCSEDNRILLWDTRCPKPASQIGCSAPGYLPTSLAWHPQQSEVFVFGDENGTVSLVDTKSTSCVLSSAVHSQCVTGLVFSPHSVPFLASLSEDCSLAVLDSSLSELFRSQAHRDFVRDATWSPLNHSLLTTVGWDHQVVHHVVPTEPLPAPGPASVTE
UniProt Q9Y6W5, whole entry, looked up: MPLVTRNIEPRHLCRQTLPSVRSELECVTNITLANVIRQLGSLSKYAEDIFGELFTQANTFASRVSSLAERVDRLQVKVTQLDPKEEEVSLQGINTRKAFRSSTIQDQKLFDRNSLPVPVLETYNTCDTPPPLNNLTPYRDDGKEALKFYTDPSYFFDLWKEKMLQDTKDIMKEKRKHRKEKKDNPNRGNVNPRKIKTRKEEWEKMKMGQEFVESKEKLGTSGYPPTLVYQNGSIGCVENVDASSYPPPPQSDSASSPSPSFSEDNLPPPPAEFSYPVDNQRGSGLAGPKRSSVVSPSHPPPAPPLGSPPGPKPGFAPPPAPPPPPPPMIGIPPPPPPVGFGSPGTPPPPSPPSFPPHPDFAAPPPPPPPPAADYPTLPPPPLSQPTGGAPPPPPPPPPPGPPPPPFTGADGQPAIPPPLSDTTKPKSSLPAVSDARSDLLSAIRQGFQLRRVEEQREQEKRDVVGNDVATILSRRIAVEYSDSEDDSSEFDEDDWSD
UniProt Q96FK6: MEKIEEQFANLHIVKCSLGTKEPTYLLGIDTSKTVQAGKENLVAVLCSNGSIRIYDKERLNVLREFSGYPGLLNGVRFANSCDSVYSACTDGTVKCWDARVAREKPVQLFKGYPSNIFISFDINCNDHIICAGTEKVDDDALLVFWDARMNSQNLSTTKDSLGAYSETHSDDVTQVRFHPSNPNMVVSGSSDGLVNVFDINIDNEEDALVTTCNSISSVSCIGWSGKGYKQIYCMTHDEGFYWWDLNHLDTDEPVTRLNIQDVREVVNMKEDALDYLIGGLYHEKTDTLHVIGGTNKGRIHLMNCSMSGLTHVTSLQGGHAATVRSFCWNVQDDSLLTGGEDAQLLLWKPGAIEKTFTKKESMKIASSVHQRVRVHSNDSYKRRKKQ
UniProt Q9BUR4: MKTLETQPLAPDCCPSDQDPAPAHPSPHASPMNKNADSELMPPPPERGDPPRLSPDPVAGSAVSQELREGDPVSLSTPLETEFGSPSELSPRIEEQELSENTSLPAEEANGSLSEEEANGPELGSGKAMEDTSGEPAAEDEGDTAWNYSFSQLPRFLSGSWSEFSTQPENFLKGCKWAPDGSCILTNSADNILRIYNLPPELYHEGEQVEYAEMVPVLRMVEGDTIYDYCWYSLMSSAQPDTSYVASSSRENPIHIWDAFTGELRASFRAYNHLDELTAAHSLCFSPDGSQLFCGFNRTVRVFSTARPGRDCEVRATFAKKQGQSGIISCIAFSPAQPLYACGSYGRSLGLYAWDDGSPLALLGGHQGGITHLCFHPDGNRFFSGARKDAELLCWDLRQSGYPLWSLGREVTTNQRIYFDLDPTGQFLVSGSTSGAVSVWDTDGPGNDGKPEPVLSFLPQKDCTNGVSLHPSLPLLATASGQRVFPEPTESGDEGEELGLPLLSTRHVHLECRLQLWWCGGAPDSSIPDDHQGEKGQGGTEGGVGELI
UniProt O75351, whole entry, looked up: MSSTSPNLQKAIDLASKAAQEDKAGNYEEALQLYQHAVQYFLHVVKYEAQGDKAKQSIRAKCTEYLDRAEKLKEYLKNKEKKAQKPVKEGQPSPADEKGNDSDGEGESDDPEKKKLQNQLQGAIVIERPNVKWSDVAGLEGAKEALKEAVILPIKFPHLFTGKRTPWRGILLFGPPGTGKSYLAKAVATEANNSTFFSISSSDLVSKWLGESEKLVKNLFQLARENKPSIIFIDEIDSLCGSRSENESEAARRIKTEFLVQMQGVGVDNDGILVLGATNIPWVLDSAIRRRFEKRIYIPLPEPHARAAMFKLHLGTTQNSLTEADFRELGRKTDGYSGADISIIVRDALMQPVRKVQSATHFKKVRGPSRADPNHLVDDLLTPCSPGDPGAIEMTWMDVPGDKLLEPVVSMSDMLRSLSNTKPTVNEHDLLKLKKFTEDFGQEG
UniProt Q14119: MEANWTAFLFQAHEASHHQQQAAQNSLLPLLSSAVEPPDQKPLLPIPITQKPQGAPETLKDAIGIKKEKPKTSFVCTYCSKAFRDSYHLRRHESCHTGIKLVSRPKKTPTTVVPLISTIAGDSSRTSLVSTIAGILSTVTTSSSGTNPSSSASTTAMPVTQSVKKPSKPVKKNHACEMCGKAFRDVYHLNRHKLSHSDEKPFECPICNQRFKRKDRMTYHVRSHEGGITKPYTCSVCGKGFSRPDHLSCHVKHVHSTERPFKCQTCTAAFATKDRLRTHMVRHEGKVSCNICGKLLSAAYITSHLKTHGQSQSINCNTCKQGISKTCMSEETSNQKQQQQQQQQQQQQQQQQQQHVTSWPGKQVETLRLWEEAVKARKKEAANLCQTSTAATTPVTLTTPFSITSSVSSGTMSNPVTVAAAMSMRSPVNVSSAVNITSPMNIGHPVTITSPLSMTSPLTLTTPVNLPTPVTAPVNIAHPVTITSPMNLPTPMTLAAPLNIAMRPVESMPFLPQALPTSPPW
UniProt Q96EX3: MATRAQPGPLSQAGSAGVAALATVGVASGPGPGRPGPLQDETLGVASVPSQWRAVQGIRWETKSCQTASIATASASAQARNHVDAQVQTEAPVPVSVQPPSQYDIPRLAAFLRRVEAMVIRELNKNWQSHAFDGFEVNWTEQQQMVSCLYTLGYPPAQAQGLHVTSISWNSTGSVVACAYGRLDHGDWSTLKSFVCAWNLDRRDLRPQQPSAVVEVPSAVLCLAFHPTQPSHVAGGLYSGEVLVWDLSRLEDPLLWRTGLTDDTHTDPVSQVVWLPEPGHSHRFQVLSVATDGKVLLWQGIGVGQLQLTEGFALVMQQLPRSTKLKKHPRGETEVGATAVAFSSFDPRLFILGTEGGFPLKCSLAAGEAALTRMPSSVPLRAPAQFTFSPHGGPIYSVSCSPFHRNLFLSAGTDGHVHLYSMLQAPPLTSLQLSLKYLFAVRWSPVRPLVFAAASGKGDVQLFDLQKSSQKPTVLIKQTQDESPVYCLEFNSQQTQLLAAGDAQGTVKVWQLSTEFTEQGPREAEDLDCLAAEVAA

Each target was assayed with Cn1cc(-c2ccc3nnc(C(F)(F)c4ccc5ncccc5c4)n3n2)cn1 (assay: log2 fold change, soluble protein after heating vs DMSO (PISA); higher = thermal stabilisation; K562 cells, 10 uM, 30 min; active = over 0.2 and 3.5 SD of the protein, either way, in both replicates (recomputed)).
Procedure, shortened: (§1)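 Thermal stability values are relative to control samples and come from duplicates. They are expressed as log2 fold changes. For measurement, K562 cells (2×10^6 cells/mL) received 10 μM compound for 30 min, and aliquots were heated for 3 min over 48°C-58°C, pooled, and extracted at 4°C in PBS with 0.5% NP-40. Soluble protein, the supernatant after 21,000xg for 90 min, was quantified by TMTpro 16plex LC-MS/MS with equalised channel sums.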

Target | log2 fold change
WDR61 (UniProt Q9GZS3) | inactive: 0.012
WDR36 (UniProt Q8NI36) | inactive: -0.085
WDR44 (UniProt Q5JSH3) | inactive: 0.046
WDR13 (UniProt Q9H1Z4) | inactive: 0.073
WASL (UniProt O00401) | inactive: -0.052
WDR74 (UniProt Q6RFH5) | inactive: -0.024
WASHC2A (UniProt Q641Q2) | inactive: 0.035
WARS (UniProt P23381) | inactive: -0.033
WASHC4 (UniProt Q2M389) | inactive: 0.036
WDFY1 (UniProt Q8IWB7) | inactive: 0.045
VPS13C (UniProt Q709C8) | inactive: -0.002
WBP11 (UniProt Q9Y2W2) | inactive: -0.035
WDR45B (UniProt Q5MNZ6) | inactive: 0.002
VPS35 (UniProt Q96QK1) | inactive: -0.007
WDR77 (UniProt Q9BQA1) | inactive: -0.007
WDR5 (UniProt P61964) | inactive: -0.057
WASF2 (UniProt Q9Y6W5) | inactive: 0.013

Target | log2 fold change
VRK3 (UniProt Q8IV63) | inactive: -0.001
WDR89 (UniProt Q96FK6) | inactive: 0.001
WRAP73 (UniProt Q9P2S5) | inactive: 0.008
VDAC3 (UniProt Q9Y277) | inactive: -0.012
WDR6 (UniProt Q9NNW5) | inactive: -0.023
WDR20 isoform 7 (UniProt Q8TBZ3) | inactive: -0.015
WIPF3 (UniProt A6NGB9) | inactive: -0.097
WRAP53 (UniProt Q9BUR4) | inactive: -0.07
WDR45 (UniProt Q9Y484) | inactive: -0.024
VTN (UniProt P04004) | inactive: -0.085
VPS4B (UniProt O75351) | inactive: -0.012
VWA5A (UniProt O00534) | inactive: 0.041
WIZ (UniProt O95785) | inactive: -0.052
VEZF1 (UniProt Q14119) | inactive: -0.134
WDR34 (UniProt Q96EX3) | inactive: -0.027
WDR70 (UniProt Q9NW82) | inactive: -0.023
WIPI1 (UniProt Q5MNZ9) | inactive: 0.052

These targets were tested with Cn1cncc1[C@@](N)(c1ccc(Cl)cc1)c1ccc2c(c1)c(-c1cccc(Cl)c1)cc(=O)n2C [tipifarnib] in the same assay as above.
Procedure, shortened: as §1

Target | log2 fold change
WDR61 (UniProt Q9GZS3) | inactive: -0.01
WDR36 (UniProt Q8NI36) | inactive: 0.015
WDR44 (UniProt Q5JSH3) | inactive: 0.007
WDR13 (UniProt Q9H1Z4) | inactive: -0.066
WASL (UniProt O00401) | inactive: -0.085
WDR74 (UniProt Q6RFH5) | inactive: 0.055
WASHC2A (UniProt Q641Q2) | inactive: 0.052
WARS (UniProt P23381) | inactive: -0.039
WASHC4 (UniProt Q2M389) | inactive: 0.056
WDFY1 (UniProt Q8IWB7) | inactive: -0.021
VPS13C (UniProt Q709C8) | inactive: -0.024
WBP11 (UniProt Q9Y2W2) | inactive: 0.022
WDR45B (UniProt Q5MNZ6) | inactive: 0.036
VPS35 (UniProt Q96QK1) | inactive: -0.037
WDR77 (UniProt Q9BQA1) | inactive: -0.045
WDR5 (UniProt P61964) | inactive: 0.052
WASF2 (UniProt Q9Y6W5) | inactive: 0.013

Target | log2 fold change
VRK3 (UniProt Q8IV63) | inactive: -0.033
WDR89 (UniProt Q96FK6) | inactive: 0.024
WRAP73 (UniProt Q9P2S5) | inactive: 0.018
VDAC3 (UniProt Q9Y277) | inactive: -0.033
WDR6 (UniProt Q9NNW5) | inactive: -0.01
WDR20 isoform 7 (UniProt Q8TBZ3) | inactive: 0.004
WIPF3 (UniProt A6NGB9) | inactive: 0.023
WRAP53 (UniProt Q9BUR4) | inactive: 0.065
WDR45 (UniProt Q9Y484) | inactive: -0.009
VTN (UniProt P04004) | inactive: 0.149
VPS4B (UniProt O75351) | inactive: -0.086
VWA5A (UniProt O00534) | inactive: -0.056
WIZ (UniProt O95785) | inactive: 0.009
VEZF1 (UniProt Q14119) | inactive: 0.22
WDR34 (UniProt Q96EX3) | inactive: 0.071
WDR70 (UniProt Q9NW82) | inactive: -0.03
WIPI1 (UniProt Q5MNZ9) | inactive: 0.015

What follows are targets tested with FC(F)(F)c1ccc(/C=C/c2nc(COc3ccc(CCCCn4ccnn4)cc3)co2)cc1 [mubritinib] in the same assay as above.
Procedure, shortened: as §1

Target | log2 fold change
WDR61 (UniProt Q9GZS3) | inactive: 0.075
WDR36 (UniProt Q8NI36) | inactive: -0.038
WDR44 (UniProt Q5JSH3) | inactive: 0.053
WDR13 (UniProt Q9H1Z4) | inactive: 0.022
WASL (UniProt O00401) | inactive: 0.049
WDR74 (UniProt Q6RFH5) | inactive: -0.035
WASHC2A (UniProt Q641Q2) | inactive: 0.004
WARS (UniProt P23381) | inactive: -0.004
WASHC4 (UniProt Q2M389) | inactive: 0.017
WDFY1 (UniProt Q8IWB7) | inactive: 0.065
VPS13C (UniProt Q709C8) | inactive: 0.035
WBP11 (UniProt Q9Y2W2) | inactive: -0.015
WDR45B (UniProt Q5MNZ6) | inactive: -0.005
VPS35 (UniProt Q96QK1) | inactive: 0.066
WDR77 (UniProt Q9BQA1) | inactive: 0.031
WDR5 (UniProt P61964) | inactive: -0.15
WASF2 (UniProt Q9Y6W5) | inactive: 0.025

Target | log2 fold change
VRK3 (UniProt Q8IV63) | inactive: 0.068
WDR89 (UniProt Q96FK6) | inactive: 0.046
WRAP73 (UniProt Q9P2S5) | inactive: -0.031
VDAC3 (UniProt Q9Y277) | inactive: 0.021
WDR6 (UniProt Q9NNW5) | inactive: 0.011
WDR20 isoform 7 (UniProt Q8TBZ3) | inactive: -0.019
WIPF3 (UniProt A6NGB9) | inactive: 0.046
WRAP53 (UniProt Q9BUR4) | inactive: -0.059
WDR45 (UniProt Q9Y484) | inactive: 0.034
VTN (UniProt P04004) | inactive: -0.197
VPS4B (UniProt O75351) | inactive: -0.065
VWA5A (UniProt O00534) | inactive: 0.03
WIZ (UniProt O95785) | inactive: 0.072
VEZF1 (UniProt Q14119) | inactive: -0.184
WDR34 (UniProt Q96EX3) | inactive: -0.005
WDR70 (UniProt Q9NW82) | inactive: 0.039
WIPI1 (UniProt Q5MNZ9) | inactive: 0.073
